The other results are listed elsewhere or left out.
What was measured:
Assay in all cases: glycan array binding signal (z-score within array); higher = stronger binding
Settings in all cases: glycan notation: IUPAC condensed, linker removed
[1] = target: Gal(b1-4)GlcNAc(b1-3)Gal(b1-4)GlcNAc(b1-3)Gal(b1-4)GlcNAc(b1-3)Gal(b1-4)GlcNAc(b1-2)Man(a1-3)[Gal(b1-4)GlcNAc(b1-3)Gal(b1-4)GlcNAc(b1-3)Gal(b1-4)GlcNAc(b1-3)Gal(b1-4)GlcNAc(b1-2)Man(a1-6)]Man(b1-4)GlcNAc(b1-4)[Fuc(a1-6)]GlcNAc
Method in brief: (§1)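 Glycan array data were curated from 3228 arrays in the Consortium for Functional Glycomics database and kept only where the protein sequence was available. Glycan names were converted to IUPAC-condensed notation, and columns mapping to the same glycan were averaged. The binding signal is a within-array Z-score, averaged across arrays of the same protein sequence at different concentrations or buffers and across linkers. Negative Z-scores can be read as non-binding.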

[2] = target: Gal(b1-4)GlcNAc(b1-3)Gal(b1-4)GlcNAc(b1-3)Gal(b1-4)GlcNAc(b1-3)Gal(b1-4)GlcNAc(b1-2)[Gal(b1-4)GlcNAc(b1-3)Gal(b1-4)GlcNAc(b1-3)Gal(b1-4)GlcNAc(b1-3)Gal(b1-4)GlcNAc(b1-6)]Man(a1-6)[Gal(b1-4)GlcNAc(b1-3)Gal(b1-4)GlcNAc(b1-3)Gal(b1-4)GlcNAc(b1-3)Gal(b1-4)GlcNAc(b1-2)Man(a1-3)]Man(b1-4)GlcNAc(b1-4)[Fuc(a1-6)]GlcNAc
Method in brief: as §1

[3] = target: Gal(b1-4)GlcNAc(b1-3)Gal(b1-4)GlcNAc(b1-3)Gal(b1-4)GlcNAc(b1-3)Gal(b1-4)GlcNAc(b1-3)Gal(b1-4)GlcNAc(b1-2)Man(a1-3)[Gal(b1-4)GlcNAc(b1-3)Gal(b1-4)GlcNAc(b1-3)Gal(b1-4)GlcNAc(b1-3)Gal(b1-4)GlcNAc(b1-3)Gal(b1-4)GlcNAc(b1-2)Man(a1-6)]Man(b1-4)GlcNAc(b1-4)GlcNAc
Method in brief: as §1

[4] = target: Gal(b1-4)GlcNAc(b1-3)Gal(b1-4)GlcNAc(b1-3)Gal(b1-4)GlcNAc(b1-3)Gal(b1-4)GlcNAc(b1-3)Gal(b1-4)GlcNAc(b1-2)Man(a1-3)[Gal(b1-4)GlcNAc(b1-3)Gal(b1-4)GlcNAc(b1-3)Gal(b1-4)GlcNAc(b1-3)Gal(b1-4)GlcNAc(b1-3)Gal(b1-4)GlcNAc(b1-2)Man(a1-6)]Man(b1-4)GlcNAc(b1-4)[Fuc(a1-6)]GlcNAc
Method in brief: as §1

[5] = target: Gal(b1-4)GlcNAc(b1-3)Gal(b1-4)GlcNAc(b1-3)Gal(b1-4)GlcNAc(b1-3)Gal(b1-4)GlcNAc(b1-3)Gal(b1-4)GlcNAc(b1-2)[Gal(b1-4)GlcNAc(b1-3)Gal(b1-4)GlcNAc(b1-3)Gal(b1-4)GlcNAc(b1-3)Gal(b1-4)GlcNAc(b1-3)Gal(b1-4)GlcNAc(b1-6)]Man(a1-6)[Gal(b1-4)GlcNAc(b1-3)Gal(b1-4)GlcNAc(b1-3)Gal(b1-4)GlcNAc(b1-3)Gal(b1-4)GlcNAc(b1-3)Gal(b1-4)GlcNAc(b1-2)Man(a1-3)]Man(b1-4)GlcNAc(b1-4)[Fuc(a1-6)]GlcNAc
Method in brief: as §1

[6] = target: Gal(b1-4)GlcNAc(b1-3)Gal(b1-4)GlcNAc(b1-3)Gal(b1-4)GlcNAc(b1-3)Gal(b1-4)GlcNAc(b1-3)Gal(b1-4)GlcNAc(b1-3)Gal(b1-4)GlcNAc(b1-2)Man(a1-3)[Gal(b1-4)GlcNAc(b1-3)Gal(b1-4)GlcNAc(b1-3)Gal(b1-4)GlcNAc(b1-3)Gal(b1-4)GlcNAc(b1-3)Gal(b1-4)GlcNAc(b1-3)Gal(b1-4)GlcNAc(b1-2)Man(a1-6)]Man(b1-4)GlcNAc(b1-4)GlcNAc
Method in brief: as §1

[7] = target: Gal(b1-4)GlcNAc(b1-3)Gal(b1-4)GlcNAc(b1-3)GalNAc
Method in brief: as §1

[8] = target: Gal(b1-4)GlcNAc(b1-3)Gal(b1-4)GlcNAc(b1-3)[Gal(b1-4)GlcNAc(b1-3)Gal(b1-4)GlcNAc(b1-6)]GalNAc
Method in brief: as §1

[9] = target: Gal(b1-4)GlcNAc(b1-3)Gal(b1-4)GlcNAc(b1-6)[Gal(b1-3)]GalNAc
Method in brief: as §1

[10] = target: Gal(b1-4)GlcNAc(b1-3)Gal(b1-4)[Fuc(a1-3)]GlcNAc(b1-3)Gal(b1-4)[Fuc(a1-3)]GlcNAc
Method in brief: as §1

[11] = target: Gal(b1-4)GlcNAc(b1-3)GalNAc
Method in brief: as §1

[12] = target: Gal(b1-4)GlcNAc(b1-3)[Fuc(a1-3)GlcNAc(b1-6)]Gal(b1-4)Glc
Method in brief: as §1

[13] = target: Gal(b1-4)GlcNAc(b1-3)[Gal(b1-4)GlcNAc(b1-6)]Gal(b1-4)GlcNAc
Method in brief: as §1

[14] = target: Gal(b1-4)GlcNAc(b1-3)[GlcNAc(b1-6)]Gal(b1-4)GlcNAc
Method in brief: as §1

[15] = target: Gal(b1-4)GlcNAc(b1-6)Gal(b1-4)GlcNAc
Method in brief: as §1

[16] = target: Gal(b1-4)GlcNAc(b1-6)GalNAc
Method in brief: as §1

[17] = target: Gal(b1-4)GlcNAc(b1-6)[Gal(b1-3)]GalNAc
Method in brief: as §1

[18] = target: Gal(b1-4)GlcNAc(b1-6)[Gal(b1-4)GlcNAc(b1-3)]GalNAc
Method in brief: as §1

Gal(b1-4)GlcNAc6P = target: Gal(b1-4)GlcNAc6P
Method in brief: as §1

Gal(b1-6)Gal = target: Gal(b1-6)Gal
Method in brief: as §1

Gal3S(b1-3)GalNAc = target: Gal3S(b1-3)GalNAc
Method in brief: as §1

Gal3S(b1-3)GlcNAc = target: Gal3S(b1-3)GlcNAc
Method in brief: as §1

[19] = target: Gal3S(b1-3)[Fuc(a1-4)]GlcNAc
Method in brief: as §1

B1: SfaEH (Escherichia coli), Q1RDG5 (protein)
chain: LLCRNNQTGQVFNSGDTSFRVNVSPVVQYDKSISVLDLSQLVSCQNEDSTGQNYDYLKILKGSGFSPALDTKTYGRLDFTSRPTGYARQLPLQFDLQVTEAFYQYGVWKPFPAKLYLYPAPGVFGKVINNGDLLATLYVNKFSTKGQEAGERNFTWRFYATNDVYIQTGTCRVSSNNVKVDLPSYPGGPVTVPLTVRCDQTQSVSYTLSGPVTGSGNTVFANTAASGSGGVGIQLSDNVGPVPAGQPRSLGQVGSSPVSLGLKASYALTGQASPTPGAVQSVINVTFSYN
glycan array binding signal (z-score) [1]: -0.08
glycan array binding signal (z-score) [2]: 3.01
glycan array binding signal (z-score) [3]: 2.05
glycan array binding signal (z-score) [4]: 0.112
glycan array binding signal (z-score) [5]: 1.75
glycan array binding signal (z-score) [6]: -0.011
glycan array binding signal (z-score) [7]: 1.52
glycan array binding signal (z-score) [8]: -0.61
glycan array binding signal (z-score) [9]: -0.15
glycan array binding signal (z-score) [10]: -0.017
glycan array binding signal (z-score) [11]: -0.813
glycan array binding signal (z-score) [12]: -0.173
glycan array binding signal (z-score) [13]: 0.131
glycan array binding signal (z-score) [14]: -0.353
glycan array binding signal (z-score) [15]: -1.15
glycan array binding signal (z-score) [16]: 0.377
glycan array binding signal (z-score) [17]: -0.21
glycan array binding signal (z-score) [18]: -0.401
glycan array binding signal (z-score) (Gal(b1-4)GlcNAc6P): -0.278
glycan array binding signal (z-score) (Gal(b1-6)Gal): -0.448
glycan array binding signal (z-score) (Gal3S(b1-3)GalNAc): 0.006
glycan array binding signal (z-score) (Gal3S(b1-3)GlcNAc): 0.475
glycan array binding signal (z-score) [19]: -0.608

From the supplement of paper PMC8728848
